Measured values from PubChem BioAssay AID1347075 (National Center for Advancing Translational Sciences (NCATS), 2019).
Values joined by “and” are separate entries in the source; they are usually repeats but may differ in a detail not shown here. Equal entries are not always repeated. The whole screen tested about 400,000 compounds, of which about 5,500 (1.4%) were called active. Inconclusive results, whose numbers are uncertain, are shown with a selection of clear calls. Calls come from the whole dose curve; as a rule, active = well fitted cell-killing curve with a large enough effect; inconclusive = small, poorly fitted or top-dose-only effect, or effect the other way; inactive = flat fitted curve, though single readings scatter. A potency beside an inconclusive call is a rough fit, not a confirmed value.
% is set by controls: 0 for no effect and ±100 for the full control effect; potency is the fitted concentration of half-maximal effect.

Assay: qHTS assay for MDR1-selective chemotherapeutics: Primary screen using the parental adenocarcinoma cell KB-3-1; note: nearly all actives have a fitted effect of over 60% in size
Conditions: KB-3-1 viability, CellTiter-Glo ATP luminescence, 72 h; activity change, negative = cytotoxic: at 46.1 µM (top of the series)
Summary of the method: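 Parental KB-3-1 viability, qHTS format: 72 h compound exposure, 37 °C; CellTiter-Glo; media-only wells and DMSO plates as controls; concentration-effect fits on corrected data.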
For `COc1cccc(NC(=O)c2nc(S(C)(=O)=O)ncc2Cl)c1`, the “activity change, negative = cytotoxic” value was inactive: 0%.
For `COc1ccc(N2C(=O)C(CC(=O)Nc3ccc(F)cc3)N(CCC3=CCCCC3)C2=O)cc1` (stereo unspecified), the “activity change, negative = cytotoxic” value was inactive: -0.423%.
With `CN1CCc2nc(SCC(=O)Nc3ccc(OC(F)(F)F)cc3)c(C#N)c(-c3cccs3)c2C1` the Potency was inconclusive: 29.1 µM [cytotoxic, single point].
In the case of `Cc1c(NC(=O)c2cc3nc(-c4ccc(Br)cc4)cc(C(F)(F)F)n3n2)c(=O)n(-c2ccccc2)n1C`, the Potency is reported as inconclusive: 16.4 µM [cytotoxic, partial curve, poor fit].
For `O=C(C[N+]12CN3CN(CN(C3)C1)C2)c1ccc(-c2ccccc2)cc1`, the activity change, negative = cytotoxic was inconclusive: -3.79%.
For `Cc1oc(-c2ccc(Cl)cc2)nc1CN1CCCC(C(=O)NCCCN2CCCC2=O)C1` (stereo unspecified), the Potency was inconclusive: 25.9 µM [cytotoxic, partial curve, poor fit].
With `CN(Cc1cccs1)c1nc(-c2cccnc2)nc2ccccc12` the Potency was inconclusive: 20.6 µM [cytotoxic, single point].
With `CCCCNc1cc(NC2CCCCC2)c2c3c(onc13)-c1ccccc1C2=O` the Potency was inconclusive: 20.6 µM [cytotoxic, single point].
With `COc1ccc(OC)c(-c2cc(C3CCN(c4cc(Cl)nc(N)n4)CC3)[nH]n2)c1` the Potency was active: 7.31 µM.
In the case of `Cn1nccc1C(=O)Nc1cc(Cl)ccc1Cl`, the “activity change, negative = cytotoxic” value is reported as inactive: 5.86%.
With `Cc1cccc(-n2c(O)c(C=Nc3cccc(O)c3)c3ccccc3c2=O)n1` the “activity change, negative = cytotoxic” value was inactive: 6.42%.
In the case of `CC(=O)c1ccc(N2CCN(S(=O)(=O)c3c(C)[nH]c(C)c3C(=O)N3CCCC3)CC2)cc1`, the activity change, negative = cytotoxic is reported as inconclusive: -38.3%.
With `O=[N+]([O-])c1ccc(O)c2ncccc12` the Potency was inconclusive: 20.6 µM [cytotoxic, single point].
In the case of `COc1ccc(Nc2cc(NCCCO)c([N+](=O)[O-])c3nonc23)cc1`, the “activity change, negative = cytotoxic” value is reported as inactive: -6.48%.
With `CC(C)(C)c1ccc(-c2noc(CCC(=O)NCc3ccco3)n2)cc1` the Potency was inconclusive: 20.6 µM [cytotoxic, single point].
With `Cc1ccc(C(=O)N2CCc3ccccc32)o1` the Potency was inconclusive: 23.1 µM [cytotoxic, single point].
For `Cc1ccc(NC(=S)N(CCCN2CCCC2)Cc2cccn2Cc2ccc(Cl)cc2)cc1`, the Potency was active: 20.6 µM.
For `CCOC(=O)c1c(S(=O)(=O)NCC(C)c2ccccc2)c(C)n(C)c1C` (stereo unspecified), the “activity change, negative = cytotoxic” value was inactive: 0%.
In the case of `CCC(C)[C@@H](N)C(=O)N/N=C/c1ccc2ncccc2c1` (stereo partly specified), the “activity change, negative = cytotoxic” value is reported as inactive: 2.74%.
In the case of `CC(=O)N1CCN(c2ccc(NCc3cccc4ccccc34)cc2)CC1`, the Potency is reported as inconclusive: 29.1 µM [cytotoxic, single point].
With `Cc1cc(-c2nn(-c3ccccc3F)cc2CN2CCN(c3ccccn3)CC2)c(C)s1` the “activity change, negative = cytotoxic” value was inactive: -14.2%.
In the case of `CCN(CC)CCn1c2ccccc2c2nc3ccccc3nc21`, the Potency is reported as inconclusive: 29.1 µM [cytotoxic, single point].
For `COc1ccc([C@H]2C=C(C(=O)O)O[C@@H](OCc3ccc(CO)cc3)C2)cc1`, the Potency was inconclusive: 25.9 µM [rising, single point].
For `COc1ccc(NC(=O)N(C)C[C@@H]2OCc3ccccc3-c3c(n(C)c4ccccc34)C(=O)N([C@H](C)CO)C[C@H]2C)c(OC)c1`, the Potency was inconclusive: 29.1 µM [cytotoxic, single point].
With `COC(=O)Nc1nc2ccc(-c3n[nH]c(=O)c4ccccc34)cc2[nH]1` the Potency was active: 14.6 µM.
With `COc1ccc(NC(=O)CSc2nc3ccccc3c3nc4ccccc4n23)cc1` the Potency was inconclusive: 7.31 µM [cytotoxic, partial curve].
With `O=C(c1ccoc1)N1CCN(c2cc(-c3ccncc3)nc3cc(-c4cccc(Cl)c4)nn23)CC1` the Potency was inconclusive: 23.1 µM [cytotoxic, single point].
With `COc1cc(C(=O)Nc2ccc(-c3cc(C(F)(F)F)nn3-c3ccccc3)cc2)cc(OC)c1OC` the Potency was inconclusive: 20.6 µM [cytotoxic, single point].
With `O=C(NC1CCCC1)c1cnn2c1NC(=C1CC1)C=C2C(F)F` the Potency was inconclusive: 29.1 µM [rising, single point].
For `CC(C)CCNC(=O)Cc1ccc(Nc2nc(=S)[nH]c3ccccc23)cc1`, the “activity change, negative = cytotoxic” value was inactive: -10.2%.
With `Cc1cccc(-c2nc(Nc3cccc(O)c3)c3ccccc3n2)c1` the “activity change, negative = cytotoxic” value was inactive: -18%.
For `CCc1ccccc1NC(=O)c1cnn2c(C(F)(F)F)cc(-c3ccc(OC)c(OC)c3)nc12`, the “activity change, negative = cytotoxic” value was inactive: -8.62%.
For `Cc1nnc2sc(-c3ccncc3)nn12`, the “activity change, negative = cytotoxic” value was inactive: 0.0043%.
For `O=S(=O)(/N=C(\c1ccc(F)cc1)N1CCOCC1)c1ccccc1`, the “activity change, negative = cytotoxic” value was inactive: 6.02%.
For `Cn1c(=O)c(=O)n(C)c2cc(N3CCCC3)c(NS(=O)(=O)c3ccc(Cl)cc3)cc21`, the “activity change, negative = cytotoxic” value was inactive: 0.727%.
With `Cc1ccc(C(C)C)c(OCC(=O)Nc2ccc3c(c2)nc(CN2CCCC2)n3C)c1` the Potency was inconclusive: 29.1 µM [cytotoxic, single point].
In the case of `COCCn1cnc2c1c(=O)n(Cc1cc(C(C)=O)ccc1OC)c(=O)n2Cc1ccccc1`, the Potency is reported as inconclusive: 5.17 µM [rising, full curve].
In the case of `N#Cc1ccc2[nH]cc(C3c4cc(F)ccc4C=C(c4ccsc4)N3c3ccc(C#CCCO)cc3)c2c1` (stereo unspecified), the Potency is reported as inconclusive: 16.4 µM [cytotoxic, single point].
With `CCc1cc(=O)oc2c(C)c(OCC(=O)NCCCN3CCCC3=O)ccc12` the Potency was inconclusive: 29.1 µM [rising, single point].
In the case of `O=C(NCCc1ccccc1)[C@@H]1CC=C[C@@H]2CCN(Cc3ccc(Cl)c(Cl)c3)C(=O)[C@@H]21`, the Potency is reported as inconclusive: 20.6 µM [cytotoxic, single point] and inconclusive: 18.4 µM [cytotoxic, partial curve, poor fit].
With `CCOc1ccc(CCNC(=O)Cn2nc(C)c3c(C)n(-c4ccccc4)nc3c2=O)cc1OCC` the Potency was “inactive”.
For `CC(C)OP(=O)(OC(C)C)/C(C=O)=N\Nc1ccc([N+](=O)[O-])cc1`, the Potency was inconclusive: 23.1 µM [cytotoxic, single point].
In the case of `CCOC(=O)c1c(C)sc(-c2c(-c3cc(C)ccc3C)[nH]c3c2c(=O)[nH]c(=O)n3C)c1O`, the Potency is reported as inconclusive: 29.1 µM [cytotoxic, single point].
With `CC1(C(=O)NCc2cccc(Cl)c2)Cc2c(-c3ccc4c(c3)OCO4)ccnc2O1` (stereo unspecified) the Potency was inconclusive: 29.1 µM [cytotoxic, single point].
For `CCN1CCN(Cc2ccc(NC(=O)c3ccc(C)c(NC(=O)c4cncc(-c5cccs5)c4)c3)cc2C(F)(F)F)CC1`, the Potency was inconclusive: 18.4 µM [cytotoxic, single point].
With `CCn1c(=S)[nH]c2scc(-c3cccs3)c2c1=O` the Potency was inconclusive: 16.4 µM [cytotoxic, single point].
In the case of `C=C1C(=O)C2=CC1CCC(=O)C1(C)CCC(OC(C)=O)C(C)(C)C1CC2O` (stereo unspecified), the Potency is reported as active: 8.2 µM.
In the case of `Cc1ccc(-c2nc(NC(=O)c3cc(C(C)(C)C)nn3C)sc2C)cc1Cl`, the Potency is reported as inconclusive: 20.6 µM [cytotoxic, partial curve, poor fit].
With `COc1ccc(Br)cc1CN(C)CC(=O)Nc1cc([N+](=O)[O-])ccc1OC` the Potency was inconclusive: 7.31 µM [cytotoxic, partial curve, poor fit].
For `O=S(=O)(/C=C/c1ccccc1)Oc1ccccc1`, the Potency was inconclusive: 25.9 µM [rising, single point].
For `CCc1cccc(NC(=O)Cn2c(=O)n(CC3CCC(C(=O)NCCc4ccccc4)CC3)c(=O)c3ccccc32)c1` (stereo unspecified), the Potency was active: 14.6 µM.
For `CN(C)S(=O)(=O)N1CCC(n2nccc2NC(=O)CCCc2ccccc2)CC1`, the “activity change, negative = cytotoxic” value was inactive: 17.4%.
For `CC(=O)c1ccc(S(=O)(=O)N2CCN(CCOc3ccc(Br)cc3)CC2)cc1`, the Potency was inconclusive: 8.2 µM [cytotoxic, partial curve, poor fit].
With `CCN(C(=O)C1CCN(c2nc(-c3ccc(OC)cc3)no2)CC1)c1ccccc1` the Potency was inconclusive: 29.1 µM [cytotoxic, single point].
For `Cc1ccc(C(=O)N2CCN(c3ccccc3F)CC2)cc1NC(=O)c1nsc2ccccc12`, the “activity change, negative = cytotoxic” value was inactive: 4.78%.
With `C=CCn1c(SCCC)nc2ccccc2c1=O` the Potency was inconclusive: 29.1 µM [rising, partial curve, poor fit].
With `O=[N+]([O-])c1cccc(CN2CCN(c3cccc4[nH]ccc34)CC2)c1` the “activity change, negative = cytotoxic” value was inactive: -0.662%.
With `Nc1nc2ccccc2n1C(=O)c1ccc(F)cc1` the Potency was inconclusive: 18.4 µM [cytotoxic, single point].
In the case of `COc1cc(CC(NC(C)=O)C(=O)NC2CCN(c3c(Cc4ccccc4)c(C)nc4ncnn34)CC2)cc(OC)c1` (stereo unspecified), the Potency is reported as inconclusive: 16.4 µM [rising, partial curve, poor fit].
For `O=C(NC1CCN(Cc2ccccc2)CC1)c1ccc2c(c1)[nH]c(=O)n2Cc1ccc(F)cc1`, the Potency was inconclusive: 9.2 µM [cytotoxic, partial curve].
For `CCOc1ccc(Nc2ccc([N+](=O)[O-])c3nonc23)cc1`, the “activity change, negative = cytotoxic” value was inactive: -13.9%.
For `Cc1cc2c(sc3ccccc32)c(C)n1`, the Potency was inconclusive: 20.6 µM [cytotoxic, single point].
In the case of `COc1cccc(CNC(=O)Cn2c(=O)oc3cc(S(=O)(=O)N4CCC(C)CC4)ccc32)c1`, the Potency is reported as inconclusive: 14.6 µM [cytotoxic, partial curve].
In the case of `O=C(Nc1ccccc1)Nc1ccc(Cl)c([N+](=O)[O-])c1`, the Potency is reported as inconclusive: 0.259 µM [rising, full curve].
In the case of `COc1ccc(Cn2c(C(=O)O)c(CNCCc3ccccc3Cl)c3ccc(C)cc32)cc1`, the Potency is reported as inconclusive: 29.1 µM [cytotoxic, single point].
With `CCN1CCCC1CNC(=O)C(=O)NCCc1ccc(OC)c(OC)c1` (stereo unspecified) the “activity change, negative = cytotoxic” value was inactive: 7.64%.
